Publication PMC4117634
No constants are given. Whether binding was seen depends on the method and setting. Binding seen in cells or lysates may run through a third protein. Some binding calls cover weakened binding; strength is not graded here.

Sequences of proteins named here, by UniProt entry; tags and fusion partners are left off.
UniProt P27986: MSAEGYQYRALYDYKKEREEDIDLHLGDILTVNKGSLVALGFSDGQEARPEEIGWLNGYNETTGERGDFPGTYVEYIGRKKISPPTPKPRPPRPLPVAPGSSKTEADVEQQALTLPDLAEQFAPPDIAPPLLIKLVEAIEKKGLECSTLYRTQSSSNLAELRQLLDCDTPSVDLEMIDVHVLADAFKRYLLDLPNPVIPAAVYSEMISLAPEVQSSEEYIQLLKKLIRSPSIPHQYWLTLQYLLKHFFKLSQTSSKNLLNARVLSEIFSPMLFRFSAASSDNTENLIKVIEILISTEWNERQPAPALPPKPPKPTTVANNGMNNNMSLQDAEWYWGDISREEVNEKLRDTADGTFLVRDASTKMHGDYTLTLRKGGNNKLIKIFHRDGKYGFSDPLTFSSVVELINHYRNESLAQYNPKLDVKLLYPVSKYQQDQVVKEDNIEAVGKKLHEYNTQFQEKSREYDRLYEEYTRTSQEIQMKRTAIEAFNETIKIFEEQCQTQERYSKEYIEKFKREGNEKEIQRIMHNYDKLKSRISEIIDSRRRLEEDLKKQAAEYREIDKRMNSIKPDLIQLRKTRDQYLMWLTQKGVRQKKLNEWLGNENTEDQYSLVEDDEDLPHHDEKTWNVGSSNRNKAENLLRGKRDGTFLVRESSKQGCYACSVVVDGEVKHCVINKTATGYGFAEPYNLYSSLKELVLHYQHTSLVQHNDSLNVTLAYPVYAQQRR
UniProt Q06187: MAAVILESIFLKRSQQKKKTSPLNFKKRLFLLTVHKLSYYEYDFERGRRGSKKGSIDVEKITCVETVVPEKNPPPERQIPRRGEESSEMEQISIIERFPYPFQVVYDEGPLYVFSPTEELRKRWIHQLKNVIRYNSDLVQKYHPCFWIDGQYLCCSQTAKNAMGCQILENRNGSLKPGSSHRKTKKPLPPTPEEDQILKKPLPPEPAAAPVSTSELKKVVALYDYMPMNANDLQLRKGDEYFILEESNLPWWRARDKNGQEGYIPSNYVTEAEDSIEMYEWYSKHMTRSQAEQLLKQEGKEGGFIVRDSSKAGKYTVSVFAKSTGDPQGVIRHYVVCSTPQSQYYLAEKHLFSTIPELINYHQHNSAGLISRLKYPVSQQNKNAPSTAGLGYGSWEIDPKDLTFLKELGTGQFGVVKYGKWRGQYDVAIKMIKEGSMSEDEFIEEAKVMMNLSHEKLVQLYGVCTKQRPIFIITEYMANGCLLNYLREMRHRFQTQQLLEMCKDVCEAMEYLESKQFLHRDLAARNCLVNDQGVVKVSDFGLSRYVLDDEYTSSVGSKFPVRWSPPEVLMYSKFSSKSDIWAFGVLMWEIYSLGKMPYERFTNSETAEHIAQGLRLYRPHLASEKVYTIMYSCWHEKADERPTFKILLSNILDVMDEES
UniProt P58753: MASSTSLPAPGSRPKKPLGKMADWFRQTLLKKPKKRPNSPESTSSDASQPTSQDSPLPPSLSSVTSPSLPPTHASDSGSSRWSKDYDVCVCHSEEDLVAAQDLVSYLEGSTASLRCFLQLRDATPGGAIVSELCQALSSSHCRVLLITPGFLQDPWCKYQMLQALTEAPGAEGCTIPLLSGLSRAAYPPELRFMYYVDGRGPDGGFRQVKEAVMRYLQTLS
UniProt Q99836: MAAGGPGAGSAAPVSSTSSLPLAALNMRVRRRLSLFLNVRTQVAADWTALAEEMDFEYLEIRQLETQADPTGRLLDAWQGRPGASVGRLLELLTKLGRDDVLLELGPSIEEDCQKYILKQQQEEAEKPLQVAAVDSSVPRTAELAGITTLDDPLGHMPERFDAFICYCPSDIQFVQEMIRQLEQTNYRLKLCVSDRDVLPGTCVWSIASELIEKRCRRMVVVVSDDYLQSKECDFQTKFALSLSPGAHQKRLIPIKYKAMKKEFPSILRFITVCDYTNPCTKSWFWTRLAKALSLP

biological target: p85α, the regulatory subunit of PI3K (human (endogenous in THP-1)) (UniProt P27986); assay: co-IP; lysates (1 mg protein) of THP-1 cells treated with MALP-2 for the indicated times; 2 µg anti-c-Src or anti-p85α antibody at 4°C for 24 h, then protein A/G beads 24 h at 4°C, washed three times with lysis buffer; immunoblot with anti-Btk, anti-Mal, anti-MyD88, anti-c-Src or anti-p85α

binding, binds:
Bruton's tyrosine kinase (Btk) (from UniProt Q06187 1-659) (enzyme), MyD88 adapter-like (Mal) (from UniProt P58753 1-221), myeloid differentiation primary response 88 (MyD88) (from UniProt Q99836 1-296)
